From patent US9867795B2, “Nitrated lipids and methods of making and using thereof” (The UAB Research Foundation, priority 2004, dated 2018)

Assays:
[1] = Quantitation of endogenous LNO2 in human red cells and plasma by HPLC ESI MS/MS
[2] = cited from earlier work

Compound: 10-nitro-9,12-octadecadienoic acid and 12-nitro-9,12-octadecadienoic acid [LNO2]
- free LNO2 as share of total in plasma [1]: 85%
- LNO2 concentration, packed red cells, free ([1]; healthy human volunteers, n = 10): 25 ± 8 nM
- share of LNO2 that is esterified ([2]; blood / tissue compartments): ~80%
- Net blood level of esterified LNO2 ([2]; healthy humans (ref 9)): ~550 nM
- Net blood level of free LNO2 ([2]; healthy humans (ref 9)): ~80 nM
- LNO2 concentration in blood of healthy individuals ([2]; red cells and plasma): ~500 nM
- [LNO2], whole blood, total ([2]; values obtained from ref. 9, assuming a 40% hematocrit): 477 ± 128 nM
- [LNO2], packed red cells, esterified ([2]; values obtained from ref. 9): 199 ± 121 nM
- [LNO2], packed red cells, free ([2]; values obtained from ref. 9): 50 ± 17 nM
- [LNO2], packed red cells, total ([2]; values obtained from ref. 9): 249 ± 104 nM
- [LNO2], plasma, esterified ([2]; values obtained from ref. 9): 550 ± 275 nM
- [LNO2], plasma, free ([2]; values obtained from ref. 9): 79 ± 35 nM
- [LNO2], plasma, total ([2]; values obtained from ref. 9): 630 ± 240 nM

Compound: O=NO [NO2^−, nitrite]
- Concentration in plasma ([2]; human blood, literature refs 35, 36): 205 ± 21 nM
